The values that follow come from paper PMC10175918 (Communications Biology, 2023).

Amino acid sequences for entries named in this document (tags omitted). A change or cut given only in a name is not applied to a line headed by its entry.
UniProt O95399: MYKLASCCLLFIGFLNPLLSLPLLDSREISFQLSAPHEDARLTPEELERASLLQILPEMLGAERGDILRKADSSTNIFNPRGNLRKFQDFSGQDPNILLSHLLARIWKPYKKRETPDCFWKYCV
UniProt P49407: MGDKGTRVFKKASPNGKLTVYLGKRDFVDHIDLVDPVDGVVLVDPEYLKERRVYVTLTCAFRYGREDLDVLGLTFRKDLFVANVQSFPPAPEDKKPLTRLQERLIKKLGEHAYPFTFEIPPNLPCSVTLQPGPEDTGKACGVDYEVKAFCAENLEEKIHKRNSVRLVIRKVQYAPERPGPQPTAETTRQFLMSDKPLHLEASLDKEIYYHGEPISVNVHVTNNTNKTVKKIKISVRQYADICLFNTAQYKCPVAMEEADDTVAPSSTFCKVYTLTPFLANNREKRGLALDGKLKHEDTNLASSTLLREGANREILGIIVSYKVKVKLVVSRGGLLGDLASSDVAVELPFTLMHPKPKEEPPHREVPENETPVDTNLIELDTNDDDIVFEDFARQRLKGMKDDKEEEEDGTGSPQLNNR

No constants are given. Whether binding was seen depends on the method and setting. In cells and extracts the contact can be indirect. Some binding calls cover weakened binding; strength is not graded here. Where a sequence is shown, tags or fusion partners need not be part of it.

In experiment [1] the target is T1, ssHA-FLAG-UTS2R-SmBiT (human) (UniProt Q9UKP6).
T1 sequence: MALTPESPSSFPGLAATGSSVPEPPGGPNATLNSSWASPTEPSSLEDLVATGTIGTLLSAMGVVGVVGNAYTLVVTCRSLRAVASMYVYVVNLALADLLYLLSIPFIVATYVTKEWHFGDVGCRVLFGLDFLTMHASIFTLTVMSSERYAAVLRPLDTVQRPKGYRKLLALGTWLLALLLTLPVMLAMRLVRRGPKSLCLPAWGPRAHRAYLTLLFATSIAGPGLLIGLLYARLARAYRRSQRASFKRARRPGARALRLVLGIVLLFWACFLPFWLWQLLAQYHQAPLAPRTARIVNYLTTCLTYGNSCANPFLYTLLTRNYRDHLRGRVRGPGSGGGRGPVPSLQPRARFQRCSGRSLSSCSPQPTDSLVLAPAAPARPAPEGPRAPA
Put plainly: split reporter; NanoBiT β-arrestin recruitment in HEK293A cells with ssHA-FLAG-UTS2R-SmBiT and LgBiT-β-arrestin; stimulated with UT2; luminescence over 5–10 min, room temperature.

The target of experiment [2] is T1, ssHA-FLAG-UTS2R-SmBiT (human). Put plainly: condition: only cells stimulated with remdesivir instead of UT2; split reporter; NanoBiT β-arrestin recruitment in HEK293A cells with ssHA-FLAG-UTS2R-SmBiT and LgBiT-β-arrestin; stimulated with remdesivir; luminescence over 5–10 min, room temperature.
In experiment [3] the target is T2, biotin–UT2 peptide (synthetic urotensin-II peptide with an N-terminal biotin tag and a GSSG spacer) (UniProt O95399).
T2 sequence (peptide, biotin on the N-terminus): GSSGETPDCFWKYCV
The experiment can be described thus: pull-down; crude membrane fraction of HEK293 cells expressing FLAG-UTS2R (50 mM HEPES pH 7.5, 250 mM NaCl, 2 mM EDTA) incubated with or without remdesivir or urantide, then with biotin-UT2 overnight; solubilised with DDM; pulled down on streptavidin magnetic beads (M280); anti-FLAG western blot; only the target purified. In general terms: A western blot detects proteins with antibodies after separation by electrophoresis.

“LgBiT-β-arrestin 1 (from UniProt P49407 1-418)”: the binding result in experiment [1] is on record as “binds”; in experiment [2] it was “no binding”.

B1: FLAG-UTS2R (urotensin-II receptor) (receptor, UniProt Q9UKP6 1-389)
chain: MALTPESPSSFPGLAATGSSVPEPPGGPNATLNSSWASPTEPSSLEDLVATGTIGTLLSAMGVVGVVGNAYTLVVTCRSLRAVASMYVYVVNLALADLLYLLSIPFIVATYVTKEWHFGDVGCRVLFGLDFLTMHASIFTLTVMSSERYAAVLRPLDTVQRPKGYRKLLALGTWLLALLLTLPVMLAMRLVRRGPKSLCLPAWGPRAHRAYLTLLFATSIAGPGLLIGLLYARLARAYRRSQRASFKRARRPGARALRLVLGIVLLFWACFLPFWLWQLLAQYHQAPLAPRTARIVNYLTTCLTYGNSCANPFLYTLLTRNYRDHLRGRVRGPGSGGGRGPVPSLQPRARFQRCSGRSLSSCSPQPTDSLVLAPAAPARPAPEGPRAPA
For the molecule B1, the binding result in experiment [3] is on record as “binds”.
